Results are given in words; binding and its absence hold for the method and conditions named. In cells and extracts the contact can be indirect. A yes stands for co-enrichment or nearness to the bait. Other partners may have been found.
Biological target: Flag-tagged RRM2B (Flag at the N-terminus), ribonucleotide reductase small subunit B (human) (UniProt Q7LG56)
Test: affinity purification with mass spectrometry; large-scale anti-Flag immunoprecipitation from whole cell lysate of doxycycline-induced 293 T-REx-Flag-RRM2B cells, urea elution, protease digestion, LC-MS; cells with untagged RRM2B as negative control

Amino acid sequences for entries named in this document (tags omitted).
UniProt Q7LG56: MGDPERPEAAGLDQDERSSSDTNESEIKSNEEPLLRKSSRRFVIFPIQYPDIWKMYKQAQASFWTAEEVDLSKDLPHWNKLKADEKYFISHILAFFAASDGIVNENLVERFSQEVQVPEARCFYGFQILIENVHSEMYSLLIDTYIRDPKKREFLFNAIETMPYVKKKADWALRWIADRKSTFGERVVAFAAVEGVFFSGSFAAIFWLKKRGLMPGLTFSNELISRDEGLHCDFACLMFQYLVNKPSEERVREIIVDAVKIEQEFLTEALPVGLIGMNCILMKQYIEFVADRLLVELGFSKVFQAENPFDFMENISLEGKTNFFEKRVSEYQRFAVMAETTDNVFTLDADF
UniProt P31350: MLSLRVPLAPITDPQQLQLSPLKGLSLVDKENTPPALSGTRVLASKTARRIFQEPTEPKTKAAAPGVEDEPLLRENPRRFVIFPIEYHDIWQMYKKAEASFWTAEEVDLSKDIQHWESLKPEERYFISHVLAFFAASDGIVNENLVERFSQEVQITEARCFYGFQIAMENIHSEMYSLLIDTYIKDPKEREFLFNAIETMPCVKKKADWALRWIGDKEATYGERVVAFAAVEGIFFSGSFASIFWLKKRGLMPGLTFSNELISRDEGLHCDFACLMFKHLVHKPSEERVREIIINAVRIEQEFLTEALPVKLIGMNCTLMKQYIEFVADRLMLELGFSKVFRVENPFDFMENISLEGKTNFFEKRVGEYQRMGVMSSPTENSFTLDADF

binding: binds
Substance: RRM2, ribonucleotide reductase small subunit (from UniProt P31350 1-389)
